# Measured values reported in paper PMC7819943, “Rice protein-binding microarrays: a tool to detect cis-acting elements near promoter regions in rice”.
# The other results are listed elsewhere or left out.
# Molecular target: T1, OsSMF1 (Oryza sativa, UniProt Q6ZLB0 1-436)
# T1 sequence: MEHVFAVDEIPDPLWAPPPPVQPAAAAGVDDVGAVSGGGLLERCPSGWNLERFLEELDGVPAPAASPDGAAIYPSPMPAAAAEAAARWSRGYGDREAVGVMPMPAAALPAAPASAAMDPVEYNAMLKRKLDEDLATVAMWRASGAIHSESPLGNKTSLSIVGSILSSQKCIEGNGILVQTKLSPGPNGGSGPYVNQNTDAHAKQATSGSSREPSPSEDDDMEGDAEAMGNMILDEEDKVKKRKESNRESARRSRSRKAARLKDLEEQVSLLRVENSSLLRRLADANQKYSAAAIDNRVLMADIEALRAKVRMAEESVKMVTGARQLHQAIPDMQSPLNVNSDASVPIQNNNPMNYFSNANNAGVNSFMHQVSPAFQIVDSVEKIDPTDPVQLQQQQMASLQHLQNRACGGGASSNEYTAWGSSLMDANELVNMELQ
# Experiment: protein-binding microarray (RPBM); PBS, 2% BSA, 51.3 ng/ul salmon testes DNA, 50 uM zinc acetate, 200 nM TF, 25 C, 1 h; high values mean tight binding
# Details: protein: recombinant; tags: N-terminal polyhistidine and DsRed monomer fusion (pET32a); chain copies: 2; label: CyDye5-dUTP incorporated in the synthesized complementary strand; 3' TTTTT single-stranded linker to array surface; dsDNA, one strand shown
# Method in brief: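 The binding signal is fluorescence intensity per feature, in arbitrary units, read on an Axon 4000B scanner. Polyhistidine- and DsRed-tagged transcription factors (N-terminal fusions) from E. coli BL21-CodonPlus were purified on Ni–NTA and applied at 200 nM for 1 h at 25 °C to a double-stranded, BSA-blocked custom Agilent array in buffer with 50 µM zinc acetate.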
row,Sequence,binding signal
1,GGTTTCCTTTGGGGAATCTCTCTTCTTCACCGTCAAATTTCGGAGTCACCTAGTGCAG,26600 fluorescence intensity (a.u.)
2,GAGTGTGAGCGGGGTGTTACGTGTGTGGTGGCGTGTACCGCGGAGTCACCTAGTGCAG,7000 fluorescence intensity (a.u.)
3,CACTGTTGCAGGATGCAGCCACATGGCCCTAGTGCTGCACCGGAGTCACCTAGTGCAG,3360 fluorescence intensity (a.u.)
4,GACAGGCAGGGGATCACGTGGCGTAGAGGGAGGATGGTGTCGGAGTCACCTAGTGCAG,3720 fluorescence intensity (a.u.)
5,CTGCCGCCGCCGTCATCTCCGACGCTCCTCCGTGGCGGCCCGGAGTCACCTAGTGCAG,6420 fluorescence intensity (a.u.)
6,AATGACAGGACAACGAGGACACCGTGGATATTAAAGACCCCGGAGTCACCTAGTGCAG,4140 fluorescence intensity (a.u.)
7,AGCAGCAGCAACTACACTAGTACGTAGGTACGTAGTAGGCCGGAGTCACCTAGTGCAG,3160 fluorescence intensity (a.u.)
8,TCTCTTTCTTCACACGCGTGCACCCATAAATGCACCCTTTCGGAGTCACCTAGTGCAG,10400 fluorescence intensity (a.u.)
9,AACCCTAACCCCACCTCACCACCCTCCCCGGCGGCGGCGGCGGAGTCACCTAGTGCAG,3290 fluorescence intensity (a.u.)
10,TAATCTTCGAGTATGTATGAATAGTTTGATTACGTGCATTCGGAGTCACCTAGTGCAG,3950 fluorescence intensity (a.u.)
11,GGTTTCCATAAAATACCCACTCATATAGTCATATGTCTTTCGGAGTCACCTAGTGCAG,3210 fluorescence intensity (a.u.)
12,GCAAGCAATCCGGGTGGATTGAGTGCTAGGCGAAATTACTCGGAGTCACCTAGTGCAG,4330 fluorescence intensity (a.u.)
13,TTACAGCCCACTGCGGAGAAAATCTCGCCACGCCACGCGACGGAGTCACCTAGTGCAG,3210 fluorescence intensity (a.u.)
14,CCCCACTGATGATGATGATGACTCGATTCTATTCCACCGCCGGAGTCACCTAGTGCAG,5550 fluorescence intensity (a.u.)
15,TGCATTTATGTAAGACTTTTATGATGTTTGTAAGACGTGGCGGAGTCACCTAGTGCAG,6730 fluorescence intensity (a.u.)
16,TTTCTGATGTGGAAAAGGTATGTGACTGTATGAAATGCAGCGGAGTCACCTAGTGCAG,3900 fluorescence intensity (a.u.)
17,GGAAAGGCACATGGATTACGCGCGCGATTGAAGAAGAAATCGGAGTCACCTAGTGCAG,36400 fluorescence intensity (a.u.)
18,GTCGTCGCCTCCGGCGTCAGCGCCAACCTCAGCATGGCATCGGAGTCACCTAGTGCAG,4820 fluorescence intensity (a.u.)
19,GCCAATCAGAGCGCGGCGTTGGCGTCTCCCCGTCATCGCGCGGAGTCACCTAGTGCAG,3840 fluorescence intensity (a.u.)
20,GTACAGCAGGAATCGCTGCTGGCGTCGCTTCGTCGGTTGTCGGAGTCACCTAGTGCAG,65100 fluorescence intensity (a.u.)
21,CGGGAGGGGAGGGGAATGGATGTGGGGAGGAGAGAGACTGCGGAGTCACCTAGTGCAG,4600 fluorescence intensity (a.u.)

# Looked up one by one from the entries so far:
row,Sequence,binding signal
8,TCTCTTTCTTCACACGCGTGCACCCATAAATGCACCCTTTCGGAGTCACCTAGTGCAG,10400 fluorescence intensity (a.u.)
13,TTACAGCCCACTGCGGAGAAAATCTCGCCACGCCACGCGACGGAGTCACCTAGTGCAG,3210 fluorescence intensity (a.u.)

# More records.

row,Sequence,binding signal
1,GGCTTTTATGGGGCGGGCTTTCTTTGGTCAATGGTCACTACGGAGTCACCTAGTGCAG,4080 fluorescence intensity (a.u.)
2,GTTGATACCTAATCCCCTATAAAAGCCCCACCTGGGGTGACGGAGTCACCTAGTGCAG,3570 fluorescence intensity (a.u.)
3,GAGCGGTGATGTGTCCTCTAATGACACGCCCGTTGACAATCGGAGTCACCTAGTGCAG,7080 fluorescence intensity (a.u.)
4,AGTACACACCTATGTATGTCCTATGTGGCAAAGACAAAGCCGGAGTCACCTAGTGCAG,3920 fluorescence intensity (a.u.)
5,TCTCCGCAAATTCGTCATCTACTCCCTCGCATCGCATGGCCGGAGTCACCTAGTGCAG,4600 fluorescence intensity (a.u.)
6,GGTTGGCCATGCTCCTCCCTGAAAGGAGCAACTGCCTTGGCGGAGTCACCTAGTGCAG,4280 fluorescence intensity (a.u.)
7,GTTGTGTTGCATGTCATGACTTAGCATTATTCAAATTGTTCGGAGTCACCTAGTGCAG,4660 fluorescence intensity (a.u.)
8,CGCTGACTCAAACCGCCACGTCAGACAAATCGGGGTCAAACGGAGTCACCTAGTGCAG,16000 fluorescence intensity (a.u.)
9,AGCTCGGTCACCTGACGCGAACGACGCCGACGTGGACGTACGGAGTCACCTAGTGCAG,10800 fluorescence intensity (a.u.)
10,AAATTTATTGTTTGGCTGGAAGACGTGGGGTTTTAAGAGGCGGAGTCACCTAGTGCAG,3280 fluorescence intensity (a.u.)
11,AAGCTAAAAGGGGATTTATACTTGAGATGGTGTGGTCACTCGGAGTCACCTAGTGCAG,3620 fluorescence intensity (a.u.)
12,GCGCACGCGAAATCCGGCCGACGACGACGACGTGACGTCACGGAGTCACCTAGTGCAG,11000 fluorescence intensity (a.u.)
13,GCTTGATCATCGGCCTCAACACCCTGCATATGTGTATTCTCGGAGTCACCTAGTGCAG,3730 fluorescence intensity (a.u.)
14,ACTTGTGGTATGTTATGCGGTAGTCATCCAAACAATACACCGGAGTCACCTAGTGCAG,7080 fluorescence intensity (a.u.)
15,GGCGAGTGTTCAAAAGCAAAGAGGCCACAATGTCGTATCTCGGAGTCACCTAGTGCAG,3410 fluorescence intensity (a.u.)
16,CATCCTGGACTGGACTGGATTCTTCTTCCCTTCCCCAGCGCGGAGTCACCTAGTGCAG,3590 fluorescence intensity (a.u.)
17,CTGTATATATATAGCACCTGCAACGAGCCAGGATCGATCACGGAGTCACCTAGTGCAG,3230 fluorescence intensity (a.u.)
18,ACTTTCCTCCACTATTGCTCGACTGAGCCACGCTGATGGCCGGAGTCACCTAGTGCAG,3320 fluorescence intensity (a.u.)
19,GAAATATCCCCTTGTCATCTGAAGCATATCCTGCTGGGTTCGGAGTCACCTAGTGCAG,5540 fluorescence intensity (a.u.)
20,GGCCCCACGTACCATCCTACCCCACCTGTCAGCGTGCGTACGGAGTCACCTAGTGCAG,5120 fluorescence intensity (a.u.)
21,CCGCTGAGCCTGAGTCTCCTGGTCCACGTACACCCGTGGACGGAGTCACCTAGTGCAG,6550 fluorescence intensity (a.u.)
